For 1 substance, binding results are on record in PMC3953594.

Amino acid sequences for entries named in this document (tags omitted). A change or cut given only in a name is not applied to a line headed by its entry.
UniProt Q9HBH7: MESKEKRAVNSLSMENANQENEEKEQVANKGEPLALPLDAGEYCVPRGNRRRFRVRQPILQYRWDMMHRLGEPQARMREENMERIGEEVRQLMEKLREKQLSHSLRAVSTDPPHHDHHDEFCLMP
UniProt P10415: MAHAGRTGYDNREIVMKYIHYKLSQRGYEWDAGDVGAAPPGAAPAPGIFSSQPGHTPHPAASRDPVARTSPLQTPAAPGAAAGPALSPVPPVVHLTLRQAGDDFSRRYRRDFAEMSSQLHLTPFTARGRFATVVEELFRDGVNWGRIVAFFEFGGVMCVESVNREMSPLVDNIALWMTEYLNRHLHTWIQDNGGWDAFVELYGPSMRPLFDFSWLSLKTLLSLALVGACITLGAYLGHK

Assay [1] concerns the target HA-tagged BEX1 truncated mutant, residues 1-96 (human) (UniProt Q9HBH7). The assay can be described thus: co-IP; lysates of HEK293 cells transfected with pCMV-HA constructs of BEX1; rabbit anti-BCL-2 or rabbit anti-HA antibody overnight at 4°C, protein A/G-agarose, washes in 1% CHAPS; blot with anti-HA or anti-BCL-2.
Assay [2] deals with HA-tagged BEX1 truncated mutant, residues 1-64 (human) (UniProt Q9HBH7). The assay is described as above.

No constants are given. Whether binding was seen depends on the method and setting. In cells and extracts the contact can be indirect. Binding calls can cover weak binding; strength is not graded here.

As to “B-cell lymphoma 2 (BCL-2), endogenous (from UniProt P10415 1-239)”, the binding result in assay [1] and in assay [2] was “binds” throughout.
